Consider two substances from article PMC11555233.

The chains behind the UniProt entries cited, without tags or fusion partners. Where a name states a change or a piece, a line headed by the entry shows the natural chain unless it says otherwise. A line that says so, or that is headed by a name, gives the form on record, which may keep a tag or linker.
UniProt Q13485: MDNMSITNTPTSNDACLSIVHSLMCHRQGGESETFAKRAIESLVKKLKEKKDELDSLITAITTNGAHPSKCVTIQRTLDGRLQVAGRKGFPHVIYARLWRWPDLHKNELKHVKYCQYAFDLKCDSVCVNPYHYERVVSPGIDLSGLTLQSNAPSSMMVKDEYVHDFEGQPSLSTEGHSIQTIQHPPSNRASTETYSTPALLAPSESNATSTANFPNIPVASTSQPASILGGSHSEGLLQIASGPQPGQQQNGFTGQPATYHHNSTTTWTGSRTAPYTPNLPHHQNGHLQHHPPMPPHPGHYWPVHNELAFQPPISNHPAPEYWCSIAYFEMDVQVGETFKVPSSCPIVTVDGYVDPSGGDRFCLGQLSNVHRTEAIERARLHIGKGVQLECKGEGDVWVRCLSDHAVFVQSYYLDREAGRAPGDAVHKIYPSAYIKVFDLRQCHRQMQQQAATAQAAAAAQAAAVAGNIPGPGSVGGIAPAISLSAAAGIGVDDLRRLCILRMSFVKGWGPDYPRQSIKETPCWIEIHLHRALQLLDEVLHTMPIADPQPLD
Flag-TurboID-SMAD4-2LA (Q13485, form named): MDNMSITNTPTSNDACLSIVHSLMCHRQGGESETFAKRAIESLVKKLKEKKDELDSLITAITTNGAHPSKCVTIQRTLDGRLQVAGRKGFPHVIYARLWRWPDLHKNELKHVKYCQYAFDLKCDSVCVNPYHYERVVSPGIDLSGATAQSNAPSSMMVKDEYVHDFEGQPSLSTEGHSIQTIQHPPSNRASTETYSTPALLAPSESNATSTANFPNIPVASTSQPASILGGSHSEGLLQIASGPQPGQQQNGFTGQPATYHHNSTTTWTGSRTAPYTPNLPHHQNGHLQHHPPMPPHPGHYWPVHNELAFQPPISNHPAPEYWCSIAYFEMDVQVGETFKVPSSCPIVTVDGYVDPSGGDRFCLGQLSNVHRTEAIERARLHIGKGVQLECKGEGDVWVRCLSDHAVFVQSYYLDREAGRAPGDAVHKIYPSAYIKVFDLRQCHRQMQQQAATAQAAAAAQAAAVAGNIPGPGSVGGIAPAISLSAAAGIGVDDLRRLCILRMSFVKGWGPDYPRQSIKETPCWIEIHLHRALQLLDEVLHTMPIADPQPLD
UniProt P13010: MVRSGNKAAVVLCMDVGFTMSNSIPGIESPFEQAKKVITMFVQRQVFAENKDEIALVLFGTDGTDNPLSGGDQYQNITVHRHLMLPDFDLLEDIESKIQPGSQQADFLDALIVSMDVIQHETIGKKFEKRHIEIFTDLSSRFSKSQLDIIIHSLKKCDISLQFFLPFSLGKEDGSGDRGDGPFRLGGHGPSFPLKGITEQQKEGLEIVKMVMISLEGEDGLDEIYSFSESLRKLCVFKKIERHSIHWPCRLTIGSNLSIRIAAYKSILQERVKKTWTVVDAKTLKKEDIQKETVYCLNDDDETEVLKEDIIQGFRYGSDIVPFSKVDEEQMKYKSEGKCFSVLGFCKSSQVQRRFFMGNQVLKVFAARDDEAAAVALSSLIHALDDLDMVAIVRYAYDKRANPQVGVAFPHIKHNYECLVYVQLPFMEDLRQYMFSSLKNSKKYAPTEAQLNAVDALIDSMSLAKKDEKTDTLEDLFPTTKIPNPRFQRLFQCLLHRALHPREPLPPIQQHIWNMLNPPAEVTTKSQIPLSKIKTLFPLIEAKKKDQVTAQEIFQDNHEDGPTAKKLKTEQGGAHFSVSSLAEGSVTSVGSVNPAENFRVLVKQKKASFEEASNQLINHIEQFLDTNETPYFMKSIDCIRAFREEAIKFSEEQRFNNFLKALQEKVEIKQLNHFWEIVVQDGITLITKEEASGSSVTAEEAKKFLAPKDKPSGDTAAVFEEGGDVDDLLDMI
UniProt P09874: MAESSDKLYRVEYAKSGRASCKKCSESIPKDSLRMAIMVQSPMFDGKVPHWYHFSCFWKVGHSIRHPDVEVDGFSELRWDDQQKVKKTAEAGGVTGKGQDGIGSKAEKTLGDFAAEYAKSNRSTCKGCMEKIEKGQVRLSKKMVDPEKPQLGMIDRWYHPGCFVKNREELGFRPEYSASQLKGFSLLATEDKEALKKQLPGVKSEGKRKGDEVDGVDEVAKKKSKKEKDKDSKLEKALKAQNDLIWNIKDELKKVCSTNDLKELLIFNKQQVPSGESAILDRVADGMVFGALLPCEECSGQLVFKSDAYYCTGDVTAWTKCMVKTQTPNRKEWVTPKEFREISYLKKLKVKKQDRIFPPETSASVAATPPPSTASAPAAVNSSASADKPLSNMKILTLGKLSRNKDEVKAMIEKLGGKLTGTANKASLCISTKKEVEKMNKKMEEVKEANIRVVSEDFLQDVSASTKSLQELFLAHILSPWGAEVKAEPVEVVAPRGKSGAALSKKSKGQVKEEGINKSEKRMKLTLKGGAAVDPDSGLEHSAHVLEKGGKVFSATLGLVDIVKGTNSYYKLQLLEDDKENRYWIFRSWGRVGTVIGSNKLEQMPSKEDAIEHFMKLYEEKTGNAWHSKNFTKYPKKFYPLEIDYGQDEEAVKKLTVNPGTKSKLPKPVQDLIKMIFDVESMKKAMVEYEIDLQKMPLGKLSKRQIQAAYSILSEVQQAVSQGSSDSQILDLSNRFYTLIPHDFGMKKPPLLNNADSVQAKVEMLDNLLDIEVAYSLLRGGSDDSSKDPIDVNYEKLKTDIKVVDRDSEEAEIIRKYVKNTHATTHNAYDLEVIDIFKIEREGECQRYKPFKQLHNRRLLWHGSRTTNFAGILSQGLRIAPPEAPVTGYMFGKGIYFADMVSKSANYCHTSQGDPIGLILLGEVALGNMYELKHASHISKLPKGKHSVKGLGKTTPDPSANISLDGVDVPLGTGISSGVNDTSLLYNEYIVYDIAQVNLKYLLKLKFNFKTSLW

For this test, the target named is Flag-TurboID-SMAD4-2LA (UniProt Q13485). Briefly: proximity labelling; TurboID fused to nuclear SMAD4-2LA in transfected HEK293FT cells, with or without irradiation; NETN lysate on streptavidin beads at 4 °C overnight, then mass spectrometry.

Results are given in words; binding and its absence hold for the method and conditions named. In cells and extracts the contact can be indirect. These calls come from enrichment with a bait or labelling near it, and not all partners need be listed.

Consider XRCC5 (from UniProt P13010 1-732), for which the binding entry was “binds”.
The result for “endogenous PARP1 (from UniProt P09874 1-1014)” reads “binds”.
